No constants are given. Whether binding was seen depends on the method and setting. Binding seen in cells or lysates may run through a third protein. Some binding calls cover weakened binding; strength is not graded here. For part of these data: Tags and fused reporters may be left off the sequences shown. Each block holds one binder with its values, some of them ahead of it.
How the values were obtained:
[1] = target: T1, Flag-tagged MST1 (UniProt Q13043); experiment: co-IP; HEK293T cells expressing HA-tagged GPR137 and Flag-tagged MST1; IP: Flag; WB: HA
T1 sequence: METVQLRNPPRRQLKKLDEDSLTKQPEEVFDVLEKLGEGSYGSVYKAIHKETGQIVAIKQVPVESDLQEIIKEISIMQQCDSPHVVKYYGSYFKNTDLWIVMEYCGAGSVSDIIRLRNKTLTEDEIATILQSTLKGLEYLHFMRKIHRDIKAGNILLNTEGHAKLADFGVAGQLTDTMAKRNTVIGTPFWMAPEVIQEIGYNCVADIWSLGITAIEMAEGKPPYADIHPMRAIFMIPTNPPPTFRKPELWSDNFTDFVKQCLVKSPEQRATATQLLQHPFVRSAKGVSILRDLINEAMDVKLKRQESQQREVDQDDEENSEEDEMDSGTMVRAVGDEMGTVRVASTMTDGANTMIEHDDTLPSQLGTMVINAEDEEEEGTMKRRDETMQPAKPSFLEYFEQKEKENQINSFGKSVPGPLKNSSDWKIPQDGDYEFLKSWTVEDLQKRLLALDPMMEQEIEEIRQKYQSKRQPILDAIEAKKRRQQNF

[2] = target: T2, endogenous MST1 (human (endogenous in AGS)) (UniProt Q13043); experiment: co-IP; AGS cell lysate (100 mM NaCl, 50 mM Tris-HCl pH 8.0, 5 mM EDTA, 1% Brij35); IP: MST1 antibody with protein A/G plus agarose, IgG as negative control; WB: GPR137 or LATS1; for MST1-LATS1 cells with or without transfected GPR137 or XMU-MP-1
T2 sequence: T1 sequence

binding [1]: binds
B1: HA-tagged GPR137 (G protein-coupled receptor 137) (receptor, UniProt Q96N19 1-417)
chain: MESNLSGLVPAAGLVPALPPAVTLGLTAAYTTLYALLFFSVYAQLWLVLLYGHKRLSYQTVFLALCLLWAALRTTLFSFYFRDTPRANRLGPLPFWLLYCCPVCLQFFTLTLMNLYFAQVVFKAKVKRRPEMSRGLLAVRGAFVGASLLFLLVNVLCAVLSHRRRAQPWALLLVRVLVSDSLFVICALSLAACLCLVARRAPSTSIYLEAKGTSVCQAAAMGGAMVLLYASRACYNLTALALAPQSRLDTFDYDWYNVSDQADLVNDLGNKGYLVFGLILFVWELLPTTLLVGFFRVHRPPQDLSTSHILNGQVFASRSYFFDRAGHCEDEGCSWEHSRGESTRCQDQAATTTVSTPPHRRDPPPSPTEYPGPSPPHPRPLCQVCLPLLAQDPGGRGYPLLWPAPCCSCHSELVPSP

binding [2]: binds
B2: endogenous GPR137 (receptor, UniProt Q96N19 1-417)
chain: B1 chain

binding [2]: binds
B3: GPR137 overexpressed in AGS cells (receptor, UniProt Q96N19 1-417)
chain: B1 chain
